In test [1] the target is T1, MBP-tagged PLL4 (6xHis-MBP-PLL4) (Arabidopsis thaliana) (UniProt Q9ZV25).
T1 sequence: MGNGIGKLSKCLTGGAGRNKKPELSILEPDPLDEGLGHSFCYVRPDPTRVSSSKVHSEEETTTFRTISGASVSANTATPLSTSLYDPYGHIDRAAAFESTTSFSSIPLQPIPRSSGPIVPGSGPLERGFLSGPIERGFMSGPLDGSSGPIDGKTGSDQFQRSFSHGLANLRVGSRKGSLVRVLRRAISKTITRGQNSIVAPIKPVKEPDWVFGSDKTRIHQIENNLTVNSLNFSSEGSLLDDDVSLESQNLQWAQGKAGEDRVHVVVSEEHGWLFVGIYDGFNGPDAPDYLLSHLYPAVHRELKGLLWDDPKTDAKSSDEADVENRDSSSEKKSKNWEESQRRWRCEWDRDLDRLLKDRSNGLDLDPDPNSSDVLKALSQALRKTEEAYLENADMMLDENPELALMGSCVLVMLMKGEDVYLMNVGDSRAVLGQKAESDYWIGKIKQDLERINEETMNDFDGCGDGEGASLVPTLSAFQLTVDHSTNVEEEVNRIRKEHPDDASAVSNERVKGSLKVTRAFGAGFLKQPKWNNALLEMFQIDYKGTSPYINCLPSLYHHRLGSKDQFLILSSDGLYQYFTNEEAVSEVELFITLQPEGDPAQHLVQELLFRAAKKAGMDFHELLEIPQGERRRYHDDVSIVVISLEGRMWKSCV
As to the kind of experiment: pull-down.

Test [2] deals with T2, MBP-tagged POL (6xHis-MBP-POL) (Arabidopsis thaliana) (UniProt Q8RWN7).
T2 sequence: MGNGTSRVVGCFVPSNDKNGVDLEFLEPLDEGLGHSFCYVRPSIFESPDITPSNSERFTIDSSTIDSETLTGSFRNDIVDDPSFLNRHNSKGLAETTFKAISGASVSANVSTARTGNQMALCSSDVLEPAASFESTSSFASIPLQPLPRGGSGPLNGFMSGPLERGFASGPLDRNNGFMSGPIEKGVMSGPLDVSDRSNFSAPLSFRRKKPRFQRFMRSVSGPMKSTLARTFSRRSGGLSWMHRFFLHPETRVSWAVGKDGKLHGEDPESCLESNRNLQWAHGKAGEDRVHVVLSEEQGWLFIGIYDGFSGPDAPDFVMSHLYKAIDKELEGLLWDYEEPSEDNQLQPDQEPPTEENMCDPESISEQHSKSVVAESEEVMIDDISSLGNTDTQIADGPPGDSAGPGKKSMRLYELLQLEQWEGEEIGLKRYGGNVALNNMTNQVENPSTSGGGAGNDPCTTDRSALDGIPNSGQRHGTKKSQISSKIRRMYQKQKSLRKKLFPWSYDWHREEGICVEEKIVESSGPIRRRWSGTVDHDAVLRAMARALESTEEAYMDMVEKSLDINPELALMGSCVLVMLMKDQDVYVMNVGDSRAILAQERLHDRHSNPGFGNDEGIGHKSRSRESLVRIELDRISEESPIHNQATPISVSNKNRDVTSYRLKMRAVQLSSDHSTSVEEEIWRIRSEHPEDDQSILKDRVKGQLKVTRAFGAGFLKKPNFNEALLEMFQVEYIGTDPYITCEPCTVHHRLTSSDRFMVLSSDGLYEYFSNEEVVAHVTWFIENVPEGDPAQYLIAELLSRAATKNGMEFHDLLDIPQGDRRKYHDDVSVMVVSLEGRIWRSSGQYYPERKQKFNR
Put plainly: pull-down.

Test [3] has as its target … SENSING 2 (FLS2)-GFP (Arabidopsis thaliana) (UniProt Q9FL28). As to the kind of experiment: co-IP.
For test [4] the target is unchanged. Put plainly: co-IP. This is another data set of the same source.

Read-outs that look alike come from different tables or passages of the source. No constants are given. Whether binding was seen depends on the method and setting. A result given as binding can be weak or reduced; the word gives no strength. For some of these results: Tags and fused reporters may be left off the sequences shown. For some of these results: Binding seen in cells or lysates may run through a third protein.

As to “6xHis-tagged cytosolic domain of EFR (6xHis-EFR-CD) (Arabidopsis thaliana) (domain or fragment)”, in test [1], the binding result is “binds”. For “GST-tagged cytosolic domain of BAM3 (6xHis-GST-BAM3-CD) (Arabidopsis thaliana) (domain or fragment)”, the binding result in test [2] is “binds”. For the substance “PLL4^3A, HA-tagged (phospho-dead variant of PLL4) (from UniProt Q9ZV25) (enzyme)”, the binding entry in test [3] and in test [4] was “binds” in each case.

Values taken from doi:10.1101/2021.01.19.427293.
